Assay results taken from article PMC12611138.
These are yes or no findings as the source states them, for the method shown. In cells and extracts the contact can be indirect. For some of these results: Binding can be weak; no strength is given.

Columns and labels:
Assay in all cases: co-IP; N. crassa protein extracts (2 mg protein) of QA-induced qa-Myc transformants; 5 uL Myc antibody 4 h at 4°C, Sepharose beads 1 h at 4°C, three washes with extraction buffer; Western blot of the immunoprecipitates
[1] = target: Myc-RTF-1^E132K (Neurospora crassa)
[2] = target: Myc-RTF-1(24-221aa) (Neurospora crassa)
[3] = target: Myc-tagged RTF-1 (Neurospora crassa)
[4] = target: Myc-RTF-1(3-221aa) (Neurospora crassa)

B1: BRE-1 (endogenous) (enzyme, UniProt Q7S304 1-724)
chain: MPVATSPSAVPRPTTVKMEDRKRPAANADDVAPPSKRQAVNGTSKSKDDSNDSREEAWIEEYQKGAIYRQMLEYKRSKVDLEHRLQEAEKSAAFHDDHLRVIKYWLSQLTQELELIVEGSLKSIALKPVDSNWVSSLAFKDSKEFRQHLDDIKKPVILKVESLLNKLASSRGEVKPDVAQLEAQVKSLLANQKELAVKIDRLQAENATLSEQYDTATLKVIKAERKLDRVRSAQVQKLEQQALANSTTRQTTNDENGTSSIAENGDGAEYKTKYKEAIAVANKQKEQIESLLAEIKTLQEENASFKIKKEGISEEDYARTDVFKQFKAQNEDLIKRINNLEAVNKQFREDAEKLRAERTSYRATLEQEAQALTSDLEDQIQQKDQDLTRIRSARDELLAELAMRKASQEQEKTASAHLNELVEAMTDRVTQLESELERLRPTEDVAKAAPTDDLSTLSAEELREKFAKLERDYEAINKELPALEKSYRKAMGIAHKKVMDFTALEERVAILTAEKSKADQKYFAARKDMDIRIAEIRTLRGQNSKSSEIISQLKDVETQHRALITTLEKQIADLKQSNITIVTESKKLESLSSEATRRADSVKSQIENLQNLVKSKDTAGRELKEKAIDKEQEAEKLKVRLDKVSSERDKWKTKCQSNSTEEEEMLRNLVLCSVCRSNFKNTILKGCGHVFCNECVDNRLANRMRKCPSCNKAFDRSDAMPAHL
[1]
  binding: no binding
[2]
  binding: binds
[3]
  binding: binds
[4]
  binding: binds
